Test results reported in the supplement of paper PMC10849652.
This is one part of the list.

The chains behind the UniProt entries cited, without tags or fusion partners. Where a name states a change or a piece, a line headed by the entry shows the natural chain unless it says otherwise.
UniProt Q9Y2X7: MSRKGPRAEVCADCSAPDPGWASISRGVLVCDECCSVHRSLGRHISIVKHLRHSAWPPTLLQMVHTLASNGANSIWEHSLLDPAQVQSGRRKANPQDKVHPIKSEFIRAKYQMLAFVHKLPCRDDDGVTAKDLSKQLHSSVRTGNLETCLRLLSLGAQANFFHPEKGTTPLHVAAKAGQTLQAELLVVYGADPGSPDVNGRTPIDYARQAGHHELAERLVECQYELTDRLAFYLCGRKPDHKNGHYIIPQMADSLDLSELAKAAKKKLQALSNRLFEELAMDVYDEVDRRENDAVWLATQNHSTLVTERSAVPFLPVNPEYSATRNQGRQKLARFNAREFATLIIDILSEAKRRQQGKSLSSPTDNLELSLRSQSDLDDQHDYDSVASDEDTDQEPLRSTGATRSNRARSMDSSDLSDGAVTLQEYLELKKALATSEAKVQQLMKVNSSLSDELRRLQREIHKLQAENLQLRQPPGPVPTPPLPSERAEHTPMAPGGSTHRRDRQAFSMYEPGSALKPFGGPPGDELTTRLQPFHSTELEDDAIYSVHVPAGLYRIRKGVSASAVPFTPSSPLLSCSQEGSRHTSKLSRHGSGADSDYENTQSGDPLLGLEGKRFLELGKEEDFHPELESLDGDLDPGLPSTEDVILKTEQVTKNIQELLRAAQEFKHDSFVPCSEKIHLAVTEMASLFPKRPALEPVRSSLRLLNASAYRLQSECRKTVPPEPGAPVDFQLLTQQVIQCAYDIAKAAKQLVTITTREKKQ
UniProt Q92820: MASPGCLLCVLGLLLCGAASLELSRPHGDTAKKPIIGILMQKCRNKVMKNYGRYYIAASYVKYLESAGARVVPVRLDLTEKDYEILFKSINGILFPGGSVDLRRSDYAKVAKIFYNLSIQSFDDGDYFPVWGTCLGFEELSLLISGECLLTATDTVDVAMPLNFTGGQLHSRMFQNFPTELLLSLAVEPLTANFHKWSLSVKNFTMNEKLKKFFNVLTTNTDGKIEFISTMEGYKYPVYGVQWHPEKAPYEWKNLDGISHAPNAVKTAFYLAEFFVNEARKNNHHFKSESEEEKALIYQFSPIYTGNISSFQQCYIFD
UniProt Q9P2T1: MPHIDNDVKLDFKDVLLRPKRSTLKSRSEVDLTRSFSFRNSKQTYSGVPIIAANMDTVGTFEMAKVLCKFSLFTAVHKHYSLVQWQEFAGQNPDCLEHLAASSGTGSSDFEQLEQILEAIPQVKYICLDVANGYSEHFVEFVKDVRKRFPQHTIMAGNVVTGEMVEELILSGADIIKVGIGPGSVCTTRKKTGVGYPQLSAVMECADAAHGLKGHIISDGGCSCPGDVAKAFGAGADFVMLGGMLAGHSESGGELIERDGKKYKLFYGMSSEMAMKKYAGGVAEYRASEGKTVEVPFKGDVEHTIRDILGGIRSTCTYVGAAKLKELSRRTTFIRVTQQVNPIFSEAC
UniProt Q9NVN8: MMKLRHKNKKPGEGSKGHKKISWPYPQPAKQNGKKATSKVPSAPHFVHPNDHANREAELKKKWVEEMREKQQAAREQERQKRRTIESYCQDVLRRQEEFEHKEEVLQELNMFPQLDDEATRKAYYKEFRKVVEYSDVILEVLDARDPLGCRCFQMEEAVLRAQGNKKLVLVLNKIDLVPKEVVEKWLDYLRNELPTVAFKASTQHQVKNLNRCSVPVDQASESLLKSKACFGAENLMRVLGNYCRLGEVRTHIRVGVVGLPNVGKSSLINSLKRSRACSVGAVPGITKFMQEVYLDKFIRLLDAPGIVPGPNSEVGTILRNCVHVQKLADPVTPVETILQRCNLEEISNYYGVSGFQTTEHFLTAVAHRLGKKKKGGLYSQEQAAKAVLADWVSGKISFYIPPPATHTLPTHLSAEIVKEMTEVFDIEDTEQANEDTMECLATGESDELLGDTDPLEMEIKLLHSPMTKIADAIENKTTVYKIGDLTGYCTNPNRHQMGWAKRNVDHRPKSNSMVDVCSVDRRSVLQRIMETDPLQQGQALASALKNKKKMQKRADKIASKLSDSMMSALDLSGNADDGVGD
UniProt P50148, whole entry, looked up: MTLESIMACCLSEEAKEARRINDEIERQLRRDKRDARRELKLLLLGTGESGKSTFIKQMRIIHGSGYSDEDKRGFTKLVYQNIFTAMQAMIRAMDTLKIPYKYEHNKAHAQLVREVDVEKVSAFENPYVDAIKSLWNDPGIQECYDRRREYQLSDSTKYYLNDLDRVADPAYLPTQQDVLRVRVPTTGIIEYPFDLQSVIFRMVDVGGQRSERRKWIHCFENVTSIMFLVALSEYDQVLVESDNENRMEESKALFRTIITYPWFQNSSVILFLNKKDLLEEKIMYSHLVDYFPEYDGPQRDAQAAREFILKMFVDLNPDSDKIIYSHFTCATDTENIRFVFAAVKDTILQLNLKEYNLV
UniProt Q86SX6: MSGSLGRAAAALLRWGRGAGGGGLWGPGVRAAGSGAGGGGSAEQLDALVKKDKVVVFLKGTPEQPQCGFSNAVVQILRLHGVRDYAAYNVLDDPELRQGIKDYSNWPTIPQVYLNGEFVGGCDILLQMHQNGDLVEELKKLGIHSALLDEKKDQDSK
UniProt Q8N954: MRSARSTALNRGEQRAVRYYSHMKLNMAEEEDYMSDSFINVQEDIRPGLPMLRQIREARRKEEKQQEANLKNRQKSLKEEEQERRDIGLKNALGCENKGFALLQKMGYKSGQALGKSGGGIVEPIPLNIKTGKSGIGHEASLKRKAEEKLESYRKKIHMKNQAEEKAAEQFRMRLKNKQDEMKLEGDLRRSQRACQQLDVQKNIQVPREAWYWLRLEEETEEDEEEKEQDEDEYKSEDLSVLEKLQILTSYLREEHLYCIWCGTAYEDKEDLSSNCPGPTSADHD
UniProt O75496: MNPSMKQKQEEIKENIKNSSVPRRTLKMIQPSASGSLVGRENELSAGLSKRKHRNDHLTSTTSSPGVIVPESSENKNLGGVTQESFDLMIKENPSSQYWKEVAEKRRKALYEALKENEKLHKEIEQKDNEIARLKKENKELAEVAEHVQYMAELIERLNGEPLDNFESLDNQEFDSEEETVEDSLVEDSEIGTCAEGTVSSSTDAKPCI
UniProt P17900: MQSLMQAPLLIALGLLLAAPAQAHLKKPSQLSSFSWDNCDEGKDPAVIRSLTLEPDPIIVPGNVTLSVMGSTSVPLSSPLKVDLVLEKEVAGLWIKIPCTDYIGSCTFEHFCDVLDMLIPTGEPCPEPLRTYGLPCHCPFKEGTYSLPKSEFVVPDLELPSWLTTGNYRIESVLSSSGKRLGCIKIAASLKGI
UniProt Q96IJ6: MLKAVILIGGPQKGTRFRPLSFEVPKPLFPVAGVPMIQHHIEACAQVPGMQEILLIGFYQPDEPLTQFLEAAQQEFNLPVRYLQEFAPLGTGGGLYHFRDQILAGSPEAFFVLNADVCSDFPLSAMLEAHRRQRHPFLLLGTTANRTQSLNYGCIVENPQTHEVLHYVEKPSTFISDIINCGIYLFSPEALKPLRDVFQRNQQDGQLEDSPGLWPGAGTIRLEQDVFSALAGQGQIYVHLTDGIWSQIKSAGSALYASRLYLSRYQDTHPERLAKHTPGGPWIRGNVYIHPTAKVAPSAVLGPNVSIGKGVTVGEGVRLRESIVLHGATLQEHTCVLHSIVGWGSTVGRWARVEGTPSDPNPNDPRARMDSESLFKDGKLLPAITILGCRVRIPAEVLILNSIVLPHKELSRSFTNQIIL
UniProt Q9Y692: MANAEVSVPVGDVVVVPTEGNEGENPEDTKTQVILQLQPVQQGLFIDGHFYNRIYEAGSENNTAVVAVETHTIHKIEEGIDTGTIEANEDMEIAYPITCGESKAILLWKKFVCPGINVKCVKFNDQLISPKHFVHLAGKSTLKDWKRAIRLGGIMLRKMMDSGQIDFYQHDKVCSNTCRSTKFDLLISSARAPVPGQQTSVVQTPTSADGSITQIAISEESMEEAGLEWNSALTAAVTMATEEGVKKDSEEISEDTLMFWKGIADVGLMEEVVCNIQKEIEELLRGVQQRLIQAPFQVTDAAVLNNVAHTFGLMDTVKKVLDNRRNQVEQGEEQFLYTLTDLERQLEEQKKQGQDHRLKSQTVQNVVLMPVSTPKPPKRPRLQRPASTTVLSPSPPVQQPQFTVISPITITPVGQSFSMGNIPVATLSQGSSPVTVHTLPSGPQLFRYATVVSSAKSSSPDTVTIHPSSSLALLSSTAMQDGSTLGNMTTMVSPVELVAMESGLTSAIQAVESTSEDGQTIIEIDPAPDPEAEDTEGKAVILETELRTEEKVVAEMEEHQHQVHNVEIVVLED
UniProt Q9P107: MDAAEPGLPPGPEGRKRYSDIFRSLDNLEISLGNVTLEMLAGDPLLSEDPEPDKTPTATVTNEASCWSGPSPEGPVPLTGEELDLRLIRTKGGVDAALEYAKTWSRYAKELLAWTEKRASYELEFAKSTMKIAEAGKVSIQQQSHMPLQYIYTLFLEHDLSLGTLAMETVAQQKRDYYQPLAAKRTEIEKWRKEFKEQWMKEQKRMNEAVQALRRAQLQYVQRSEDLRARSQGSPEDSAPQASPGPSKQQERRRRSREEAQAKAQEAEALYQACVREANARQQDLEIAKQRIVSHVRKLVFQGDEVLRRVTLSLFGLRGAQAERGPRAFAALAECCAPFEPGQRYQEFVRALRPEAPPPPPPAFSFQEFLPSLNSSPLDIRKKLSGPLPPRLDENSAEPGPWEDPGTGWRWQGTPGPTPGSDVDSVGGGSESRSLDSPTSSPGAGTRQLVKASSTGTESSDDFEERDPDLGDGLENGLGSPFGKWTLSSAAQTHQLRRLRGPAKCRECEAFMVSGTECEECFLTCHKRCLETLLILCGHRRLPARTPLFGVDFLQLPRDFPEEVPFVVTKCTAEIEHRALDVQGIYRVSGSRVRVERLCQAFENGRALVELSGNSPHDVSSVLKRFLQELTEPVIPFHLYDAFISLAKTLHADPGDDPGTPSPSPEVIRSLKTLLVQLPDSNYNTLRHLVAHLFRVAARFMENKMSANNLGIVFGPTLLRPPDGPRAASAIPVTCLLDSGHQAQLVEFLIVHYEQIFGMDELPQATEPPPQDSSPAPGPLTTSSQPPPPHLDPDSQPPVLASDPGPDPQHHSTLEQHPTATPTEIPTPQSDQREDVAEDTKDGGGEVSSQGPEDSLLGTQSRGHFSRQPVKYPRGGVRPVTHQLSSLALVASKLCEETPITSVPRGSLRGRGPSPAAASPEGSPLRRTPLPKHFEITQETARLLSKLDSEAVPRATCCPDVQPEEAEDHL
UniProt Q8WWB7: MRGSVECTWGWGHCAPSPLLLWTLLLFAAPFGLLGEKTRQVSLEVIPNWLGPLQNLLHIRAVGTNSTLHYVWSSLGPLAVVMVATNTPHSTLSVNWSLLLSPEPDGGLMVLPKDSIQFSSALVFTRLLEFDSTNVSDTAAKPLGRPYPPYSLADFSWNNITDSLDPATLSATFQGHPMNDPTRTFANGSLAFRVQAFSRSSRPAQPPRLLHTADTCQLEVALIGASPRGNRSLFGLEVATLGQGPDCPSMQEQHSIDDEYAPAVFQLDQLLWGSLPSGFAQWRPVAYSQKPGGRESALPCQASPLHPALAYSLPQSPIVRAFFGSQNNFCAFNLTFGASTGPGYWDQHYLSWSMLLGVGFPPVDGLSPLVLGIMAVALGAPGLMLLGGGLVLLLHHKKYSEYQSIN
UniProt Q9BRR8: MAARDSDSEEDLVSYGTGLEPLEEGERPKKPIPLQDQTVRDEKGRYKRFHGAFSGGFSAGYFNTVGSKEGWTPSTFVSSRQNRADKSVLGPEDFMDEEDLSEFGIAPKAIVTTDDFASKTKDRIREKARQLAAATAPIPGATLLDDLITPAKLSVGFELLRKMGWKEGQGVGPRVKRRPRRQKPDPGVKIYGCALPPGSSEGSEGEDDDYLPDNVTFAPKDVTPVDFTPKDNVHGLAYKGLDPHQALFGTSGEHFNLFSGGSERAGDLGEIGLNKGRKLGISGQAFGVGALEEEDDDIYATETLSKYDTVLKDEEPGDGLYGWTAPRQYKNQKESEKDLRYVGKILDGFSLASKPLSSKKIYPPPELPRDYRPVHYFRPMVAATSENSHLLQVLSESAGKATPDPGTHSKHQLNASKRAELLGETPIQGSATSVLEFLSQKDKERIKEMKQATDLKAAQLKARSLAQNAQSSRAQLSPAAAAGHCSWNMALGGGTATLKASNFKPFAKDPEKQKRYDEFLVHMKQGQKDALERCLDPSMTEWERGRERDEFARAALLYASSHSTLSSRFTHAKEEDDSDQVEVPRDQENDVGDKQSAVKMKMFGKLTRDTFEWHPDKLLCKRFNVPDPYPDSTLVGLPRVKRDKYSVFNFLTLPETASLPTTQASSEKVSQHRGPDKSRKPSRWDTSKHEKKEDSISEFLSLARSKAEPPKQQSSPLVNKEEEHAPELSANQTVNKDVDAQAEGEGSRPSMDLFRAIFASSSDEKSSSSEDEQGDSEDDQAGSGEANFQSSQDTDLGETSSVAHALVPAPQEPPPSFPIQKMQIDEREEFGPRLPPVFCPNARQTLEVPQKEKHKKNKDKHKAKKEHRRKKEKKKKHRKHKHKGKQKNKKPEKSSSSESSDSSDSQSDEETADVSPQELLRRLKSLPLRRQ
UniProt Q9UBI6: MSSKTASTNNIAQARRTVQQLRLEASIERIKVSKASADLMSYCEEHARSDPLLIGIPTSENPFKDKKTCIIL

Compound: Cn1cc(-c2ccc3c(c2)CCN3C(=O)Cc2cccc(C(F)(F)F)c2)c2c(N)ncnc21
Test: log2 fold change, soluble protein after heating vs DMSO (PISA); higher = thermal stabilisation; K562 lysate, 10 uM; active = over 0.2 and 3.5 SD of the protein, either way, in both replicates (recomputed)
Outline: (§1)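 K562 pellets were dounce-homogenised in PBS pH 7.4 with 1 mM MgCl2, and the crude extract at 1 mg/mL protein was treated with 10 μM compound for 30 min. Aliquots were heated for 3 min across 48°C-58°C, pooled, and brought to 0.5% NP-40 at 4°C; soluble protein was the supernatant after 21,000xg for 90 min. Soluble protein was quantified by TMTpro 16plex LC-MS/MS with channel sums equalised, and reported as log2 fold change in thermal stability against DMSO controls, with values from duplicates.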

Q: With GGACT (UniProt Q9BVM4) as the target, how does the log2 fold change read?
A: The log2 fold change was inactive: -0.011.

Q: How did the log2 fold change turn out when GIT1 (UniProt Q9Y2X7) was run?
A: Its log2 fold change is inactive: 0.036.

Q: How did the log2 fold change turn out when GPA33 (UniProt Q99795) was run?
A: Its log2 fold change is inactive: -0.09.

Q: For GGH (UniProt Q92820), which log2 fold change is on record?
A: Its log2 fold change is inactive: -0.037.

Q: For GLUD1 (UniProt P00367), which log2 fold change is on record?
A: The log2 fold change was inactive: -0.01.

Q: GOLGA4 (UniProt Q13439) was tested. Which log2 fold change did it give?
A: The log2 fold change was inactive: -0.025.

Q: With GPATCH2L (UniProt Q9NWQ4) as the target, how does the log2 fold change read?
A: The log2 fold change was inactive: 0.123.

Q: With GMPR2 isoform 2 (UniProt Q9P2T1) as the target, how does the log2 fold change read?
A: The log2 fold change was inactive: 0.013.

Q: How did the log2 fold change turn out when GPLD1 (UniProt P80108) was run?
A: Its log2 fold change is inactive: 0.

Q: How did the log2 fold change turn out when GNPTAB (UniProt Q3T906) was run?
A: Its log2 fold change is inactive: 0.147.

Q: How did the log2 fold change turn out when GNL3L (UniProt Q9NVN8) was run?
A: Its log2 fold change is inactive: 0.089.

Q: GNAQ (UniProt P50148) was tested. Which log2 fold change did it give?
A: Its log2 fold change is inactive: 0.083.

Q: For GLTP (UniProt Q9NZD2), which log2 fold change is on record?
A: Its log2 fold change is inactive: 0.01.

Q: With GLRX5 (UniProt Q86SX6) as the target, how does the log2 fold change read?
A: Its log2 fold change is inactive: 0.017.

Q: For GPATCH11 (UniProt Q8N954), which log2 fold change is on record?
A: The log2 fold change was inactive: 0.012.

Q: Which log2 fold change does the source give for GMNN (UniProt O75496) here?
A: The log2 fold change was inactive: 0.014.

Q: For GM2A (UniProt P17900), which log2 fold change is on record?
A: Its log2 fold change is inactive: 0.052.

Q: Which log2 fold change does the source give for GNA12 (UniProt Q03113) here?
A: Its log2 fold change is inactive: 0.031.

Q: For GOLGB1 isoform 4 (UniProt Q14789), which log2 fold change is on record?
A: Its log2 fold change is inactive: -0.025.

Q: With GMPPA (UniProt Q96IJ6) as the target, how does the log2 fold change read?
A: The log2 fold change was inactive: 0.023.

Q: How did the log2 fold change turn out when GOPC (UniProt Q9HD26) was run?
A: The log2 fold change was inactive: 0.028.

Q: Which log2 fold change does the source give for GPBP1L1 (UniProt Q9HC44) here?
A: Its log2 fold change is inactive: 0.047.

Q: How did the log2 fold change turn out when GMEB1 (UniProt Q9Y692) was run?
A: The log2 fold change was inactive: 0.014.

Q: For GMIP (UniProt Q9P107), which log2 fold change is on record?
A: Its log2 fold change is inactive: 0.023.

Q: GLMP (UniProt Q8WWB7) was tested. Which log2 fold change did it give?
A: The log2 fold change was inactive: -0.167.

Q: GPATCH1 (UniProt Q9BRR8) was tested. Which log2 fold change did it give?
A: Its log2 fold change is inactive: 0.018.

Compound: Cn1cc(CNCC2CCN(c3ncc(C(=O)NO)cn3)CC2)c2ccccc21 [quisinostat]
Test: as above
Outline: as §1

Q: Which log2 fold change does the source give for GGACT (UniProt Q9BVM4) here?
A: Its log2 fold change is inactive: -0.035.

Q: For GPSM1 (UniProt Q86YR5), which log2 fold change is on record?
A: The log2 fold change was inactive: -0.103.

Q: GMEB1 isoform 2 (UniProt Q9Y692) was tested. Which log2 fold change did it give?
A: Its log2 fold change is inactive: 0.058.

Q: GOLIM4 (UniProt F8W785) was tested. Which log2 fold change did it give?
A: Its log2 fold change is inactive: 0.09.

Q: GIT1 (UniProt Q9Y2X7) was tested. Which log2 fold change did it give?
A: Its log2 fold change is inactive: -0.045.

Q: With GGH (UniProt Q92820) as the target, how does the log2 fold change read?
A: Its log2 fold change is inactive: 0.025.

Q: GLUD1 (UniProt P00367) was tested. Which log2 fold change did it give?
A: Its log2 fold change is inactive: 0.029.

Q: Which log2 fold change does the source give for GOLGA4 (UniProt Q13439) here?
A: Its log2 fold change is inactive: -0.153.

Q: How did the log2 fold change turn out when GPATCH2L (UniProt Q9NWQ4) was run?
A: The log2 fold change was inactive: -0.124.

Q: For GMPR2 isoform 2 (UniProt Q9P2T1), which log2 fold change is on record?
A: The log2 fold change was inactive: 0.046.

Q: How did the log2 fold change turn out when GPLD1 (UniProt P80108) was run?
A: Its log2 fold change is inactive: 0.108.

Q: Which log2 fold change does the source give for GNPTAB (UniProt Q3T906) here?
A: The log2 fold change was inactive: -0.018.

Q: GK5 (UniProt Q6ZS86) was tested. Which log2 fold change did it give?
A: The log2 fold change was inactive: -0.092.

Q: For GLRX (UniProt P35754), which log2 fold change is on record?
A: Its log2 fold change is inactive: 0.014.

Q: For GNL3L (UniProt Q9NVN8), which log2 fold change is on record?
A: Its log2 fold change is inactive: -0.155.

Q: GNAQ (UniProt P50148) was tested. Which log2 fold change did it give?
A: Its log2 fold change is inactive: 0.004.

Q: Which log2 fold change does the source give for GLTP (UniProt Q9NZD2) here?
A: The log2 fold change was inactive: -0.171.

Q: For GPR180 (UniProt Q86V85), which log2 fold change is on record?
A: The log2 fold change was inactive: 0.034.

Q: For GLRX5 (UniProt Q86SX6), which log2 fold change is on record?
A: The log2 fold change was inactive: -0.03.

Q: GPATCH11 (UniProt Q8N954) was tested. Which log2 fold change did it give?
A: Its log2 fold change is inactive: -0.012.

Q: How did the log2 fold change turn out when GMNN (UniProt O75496) was run?
A: The log2 fold change was inactive: -0.028.

Q: With GM2A (UniProt P17900) as the target, how does the log2 fold change read?
A: Its log2 fold change is inactive: -0.006.

Q: Which log2 fold change does the source give for GNAS isoform 3 (UniProt P63092) here?
A: The log2 fold change was inactive: 0.

Q: GNA12 (UniProt Q03113) was tested. Which log2 fold change did it give?
A: Its log2 fold change is inactive: -0.069.

Q: GKAP1 (UniProt Q5VSY0) was tested. Which log2 fold change did it give?
A: Its log2 fold change is inactive: -0.088.

Q: How did the log2 fold change turn out when GMPPA (UniProt Q96IJ6) was run?
A: Its log2 fold change is inactive: -0.105.

Q: GOPC (UniProt Q9HD26) was tested. Which log2 fold change did it give?
A: Its log2 fold change is inactive: 0.031.

Q: With GPR68 (UniProt Q15743) as the target, how does the log2 fold change read?
A: The log2 fold change was inactive: 0.098.

Q: With GPBP1L1 (UniProt Q9HC44) as the target, how does the log2 fold change read?
A: The log2 fold change was inactive: -0.112.

Q: With GINM1 (UniProt Q9NU53) as the target, how does the log2 fold change read?
A: The log2 fold change was inactive: -0.359.

Q: For GMEB1 (UniProt Q9Y692), which log2 fold change is on record?
A: The log2 fold change was inactive: 0.003.

Q: With GMIP (UniProt Q9P107) as the target, how does the log2 fold change read?
A: The log2 fold change was inactive: -0.012.

Q: With GLMP (UniProt Q8WWB7) as the target, how does the log2 fold change read?
A: The log2 fold change was inactive: -0.052.

Q: Which log2 fold change does the source give for GPATCH3 (UniProt Q96I76) here?
A: Its log2 fold change is inactive: 0.046.

Q: Which log2 fold change does the source give for GPATCH1 (UniProt Q9BRR8) here?
A: Its log2 fold change is inactive: 0.018.

Compound: Cn1cncc1[C@@](N)(c1ccc(Cl)cc1)c1ccc2c(c1)c(-c1cccc(Cl)c1)cc(=O)n2C [tipifarnib]
Test: as above
Outline: as §1

Q: With GMEB1 isoform 2 (UniProt Q9Y692) as the target, how does the log2 fold change read?
A: The log2 fold change was inactive: 0.082.

Q: GIT1 (UniProt Q9Y2X7) was tested. Which log2 fold change did it give?
A: Its log2 fold change is inactive: -0.086.

Q: With GPA33 (UniProt Q99795) as the target, how does the log2 fold change read?
A: The log2 fold change was inactive: 0.022.

Q: With GGH (UniProt Q92820) as the target, how does the log2 fold change read?
A: Its log2 fold change is inactive: 0.004.

Q: With GLUD1 (UniProt P00367) as the target, how does the log2 fold change read?
A: The log2 fold change was inactive: -0.002.

Q: How did the log2 fold change turn out when GOLGA4 (UniProt Q13439) was run?
A: Its log2 fold change is inactive: -0.198.

Q: Which log2 fold change does the source give for GNG12 (UniProt Q9UBI6) here?
A: Its log2 fold change is inactive: -0.056.

Q: For GMPR2 isoform 2 (UniProt Q9P2T1), which log2 fold change is on record?
A: The log2 fold change was inactive: -0.004.

Q: With GNPTAB (UniProt Q3T906) as the target, how does the log2 fold change read?
A: Its log2 fold change is inactive: -0.156.

Q: GNL3L (UniProt Q9NVN8) was tested. Which log2 fold change did it give?
A: Its log2 fold change is inactive: 0.006.

Q: Which log2 fold change does the source give for GNAQ (UniProt P50148) here?
A: Its log2 fold change is inactive: 0.066.

Q: Which log2 fold change does the source give for GLRX5 (UniProt Q86SX6) here?
A: Its log2 fold change is inactive: 0.022.

Q: For GPATCH11 (UniProt Q8N954), which log2 fold change is on record?
A: Its log2 fold change is inactive: -0.031.

Q: With GMNN (UniProt O75496) as the target, how does the log2 fold change read?
A: The log2 fold change was inactive: 0.001.

Q: GM2A (UniProt P17900) was tested. Which log2 fold change did it give?
A: The log2 fold change was inactive: -0.037.

Q: For GMPPA (UniProt Q96IJ6), which log2 fold change is on record?
A: Its log2 fold change is inactive: -0.013.

Q: With GOPC (UniProt Q9HD26) as the target, how does the log2 fold change read?
A: Its log2 fold change is inactive: 0.02.

Q: With GPRASP2 (UniProt Q96D09) as the target, how does the log2 fold change read?
A: The log2 fold change was inactive: -0.001.

Q: GINM1 (UniProt Q9NU53) was tested. Which log2 fold change did it give?
A: The log2 fold change was inactive: 0.053.

Q: For GMEB1 (UniProt Q9Y692), which log2 fold change is on record?
A: The log2 fold change was inactive: -0.052.

Q: For GMIP (UniProt Q9P107), which log2 fold change is on record?
A: Its log2 fold change is inactive: -0.017.

Q: Which log2 fold change does the source give for GLMP (UniProt Q8WWB7) here?
A: The log2 fold change was inactive: 0.046.

Q: For GPATCH1 (UniProt Q9BRR8), which log2 fold change is on record?
A: Its log2 fold change is inactive: -0.074.
